According to US20250388694A1:
These are yes or no findings as the source states them, for the method shown. Some results given as binding are weak or reduced against the parent protein; the word gives no strength.

Amino acid sequences for entries named in this document (tags omitted). A change or cut given only in a name is not applied to a line headed by its entry.
UniProt P13693: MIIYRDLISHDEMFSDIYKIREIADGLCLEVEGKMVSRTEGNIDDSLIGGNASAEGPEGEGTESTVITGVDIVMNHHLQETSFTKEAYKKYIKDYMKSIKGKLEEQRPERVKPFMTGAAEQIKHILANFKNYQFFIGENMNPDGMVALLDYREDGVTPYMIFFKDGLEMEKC

Columns and labels:
[1] = target: Human TCTP (translationally controlled tumor protein) (human) (UniProt P13693); experiment: ELISA, selection of hybridoma antibodies
[2] = target: Human TCTP (translationally controlled tumor protein) (human) (UniProt P13693); experiment: ELISA, human TCTP coated at 1 ug/ml, antibody titrated
[3] = target: Human TCTP (translationally controlled tumor protein) (human) (UniProt P13693); experiment: ELISA, human TCTP coated at 1 µg/ml, antibody titrated, OD 450 nm
[4] = target: Human TCTP (translationally controlled tumor protein) (human) (UniProt P13693); experiment: ELISA, selection after Beacon screening

Measured: binding

B1: Ab22 (antibody, V domains shown)
VH: QVQLQQSGPGLVKPSQTLSLTCAISGDSVSSSSAAWNWIRQSPSRGLEWLGRTYYRSKWYNDYAESVKSRITINPDTSKNQFSLQLNSVTPEDTAVYYCARRLTIVRGVMRGGMDVWGQGTTVTVSS
VL: DIVMTQSPDSLAVSLDERATINCKSSQNLLYSANNKDYLAWYQQKPGQSPKLLIYWASTRYSGVPDRFSGSGSGTDFTLTISSLQAEDVAVYYCQQYYSTPWTFGQGTKVEIK
binds: [1] | [2] | [3]

B2: Ab21 (antibody, V domains shown)
VH: QVQLQQSGPGLVKPSQTLSLTCAISGDSVSSSSAAWNWIRQSPSRGLEWLGRTYYRSKWYNDYAESVKSRITINPDTSKNQFSLQLNSVTPEDTAVYYCARRLTIVRGVMRGGMDVWGQGTTVTVSS
VL: DIVMTQSPDSLAVSLDERATINCKSSQNLLYSANNKDYLAWYQQKPGQSPKLLIYWASTRYSGVPDRFSGSGSGTDFTLTISSLQAEDVAVYYCQQYYSTPWTFGQGTKVEIK
binds: [1] | [2] | [3]

B3: Ab3 (antibody, V domains shown)
VH: QVQLVQSGAEVKKPGASVKVSCKASGYTFTGYYMHWVRQAPGQGLEWMGWINPNSGGTNYAQKFQGWVTMTRDTSISTAYMELRLRSDDTAVYYCARLGTTGYYYFDYWGQGTLVTVSS
VL: EIVLTQSPDFQSVTPKEKVTITCRASQSIGSSLHWYQQKPDQSPKLLIKYASQSFSGVPSRFSGSGSGTDFTLTINSLEAEDAATYYCHQSSSLPRTFGQGTKVEIK
binds: [2] | [3] | [4]
